Measurements: patent publication US20260176320A1, “MODULATORS OF G-PROTEIN COUPLED RECEPTORS” (priority 2018, published 2026)
At least one structure is not confirmed: it was looked up by name or label, or the drawing left a doubt.

Test system: mice
Assay: Glucose tolerance test (GTT)
Type: in vivo, mouse
Settings: 24 h GTT, s.c., percent of vehicle
Experimental: Freestyle Lite glucometer and strips; compounds to be tested; sterilized glucose solution 200 mg/ml.
Compounds were diluted in PBS from the 1 mM DMSO stocks right before injection. Body weight and baseline blood glucose level for each mouse were measured. Tails were snipped using sterile scissors; blood from tails was used to measure glucose. For 0.25 h GTT, mice were fasted for 5-6 h and injected with compound subcutaneously 15 mins before glucose injection. For 4 h GTT, mice were fasted O/N for 16 h and injected with compound subcutaneously 4 h before glucose injection. For 16 h GTT, mice were injected with compound subcutaneously 16 h before glucose injection; food was removed at the same time. For 24 h GTT, mice were injected with compound subcutaneously 24 h before glucose injection; food was removed 5-6 h before glucose injection. 20% glucose in water was prepared; the solution was sterilized by 0.2 μm-filtration. An intraperitoneal injection of glucose (2 g/kg) was given to the mouse. Continued to take blood samples from the tail. Blood glucose was measured at 10, 20, 30, 40, 60, 90, and 120 minutes after glucose injection. Between each of these time points, the mouse was returned to its cage and monitored (at least 6 replicate mice were used for each time-point). The average glucose measurements were plotted as a function of time and the area under the curve (AUC) was determined.

Which AUC score (50 nmol/kg) does the source give for `CCCCCCCCCCCCCCCC(=O)N[C@@H](CCC(=O)NCCCC[C@H](NC(=O)[C@H](C)NC(=O)[C@H](C)NC(=O)[C@H](CCC(N)=O)NC(=O)CNC(=O)[C@H](CCC(=O)O)NC(=O)[C@H](CC(C)C)NC(=O)[C@H](Cc1ccc(O)cc1)NC(=O)[C@H](CO)NC(=O)[C@H](CO)NC(=O)[C@@H](NC(=O)[C@H](CC(=O)O)NC(=O)[C@H](CO)NC(=O)[C@@H](NC(=O)[C@H](Cc1ccccc1)NC(=O)[C@@H](NC(=O)CNC(=O)[C@H](CCC(=O)O)NC(=O)[C@H](C)NC(=O)[C@@H](N)Cc1cnc[nH]1)[C@@H](C)O)[C@@H](C)O)C(C)C)C(=O)N[C@@H](CCC(=O)O)C(=O)N[C@@H](Cc1ccccc1)C(=O)N[C@H](C(=O)N[C@@H](C)C(=O)N[C@@H](Cc1c[nH]c2ccccc12)C(=O)N[C@@H](CC(C)C)C(=O)N[C@H](C(=O)N[C@@H](CCCNC(=N)N)C(=O)NCC(=O)N[C@@H](CCCNC(=N)N)C(=O)NCC(=O)O)C(C)C)[C@@H](C)CC)C(=O)O` [Liraglutide, liraglutide, reference compound] here?
The AUC score was 4 (AUC score 4 = 76-100%).

What about the AUC score (200 nmol/kg) of the same compound?
Its AUC score is 2 (AUC score 2 = 26-50%).
